No constants are given. Whether binding was seen depends on the method and setting. Binding seen in cells or lysates may run through a third protein. For some assays here: Binding calls can cover weak binding; strength is not graded here. Sequences can lack the tags named with a protein.
What was measured:
[1] = biological target: myc-TPXV08 (Tanapox virus) (UniProt Q9DHV4); test: co-IP
[2] = biological target: myc-EPTV169 (Eptesipox virus); test: co-IP

Chains of the proteins cited; added tags and fusions are not shown. Lines headed by an entry give the natural chain unless they say otherwise; changes in a name come on top.
UniProt Q9DHV4: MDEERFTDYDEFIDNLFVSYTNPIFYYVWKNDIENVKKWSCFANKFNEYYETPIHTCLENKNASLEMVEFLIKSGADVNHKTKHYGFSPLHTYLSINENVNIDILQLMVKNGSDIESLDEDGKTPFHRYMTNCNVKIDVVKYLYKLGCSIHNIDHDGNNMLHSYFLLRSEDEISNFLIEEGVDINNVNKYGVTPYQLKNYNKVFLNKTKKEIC

B1: human GFP-IFIT1 (protein, UniProt P09914 1-478)
chain: MSTNGDDHQVKDSLEQLRCHFTWELSIDDDEMPDLENRVLDQIEFLDTKYSVGIHNLLAYVKHLKGQNEEALKSLKEAENLMQEEHDNQANVRSLVTWGNFAWMYYHMGRLAEAQTYLDKVENICKKLSNPFRYRMECPEIDCEEGWALLKCGGKNYERAKACFEKVLEVDPENPESSAGYAISAYRLDGFKLATKNHKPFSLLPLRQAVRLNPDNGYIKVLLALKLQDEGQEAEGEKYIEEALANMSSQTYVFRYAAKFYRRKGSVDKALELLKKALQETPTSVLLHHQIGLCYKAQMIQIKEATKGQPRGQNREKLDKMIRSAIFHFESAVEKKPTFEVAHLDLARMYIEAGNHRKAEENFQKLLCMKPVVEETMQDIHFHYGRFQEFQKKSDVNAIIHYLKAIKIEQASLTRDKSINSLKKLVLRKLRRKALDLESLSLLGFVYKLEGNMNEALEYYERALRLAADFENSVRQGP
binding [1]: binds | binding [2]: no binding

Source: PMC11957390
